Percent effect of library compounds

Data taken from ChEMBL document CHEMBL3988442, “University of Dundee, Small-Polar-MMV Screening Library” (2021).

Mtb cholesterol medium: 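Whole-cell growth test on Mycobacterium tuberculosis, read after 4 days in a medium based on cholesterol and the lipid DPPC; the read-out is not stated. Compounds at 50 µM. Direction is inferred from retests: higher values go with more growth inhibition. About 69,000 compounds were tested under these conditions; 0.54% (about 370) showed 50% or more at least once.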
Mtb glucose medium: 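Phenotypic screen: M. tuberculosis growth, glucose 7H9 medium, 3 days; the read-out is not stated. Compounds at 50 µM. Higher reads as more growth inhibition (inferred: compounds with an IC50 in retests scored well above the rest). About 69,000 compounds were tested under these conditions; 1.1% (about 760) showed 50% or more at least once.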

Values are the deposited “Percent Effect”, in %.
The controls that fix the scale are not given in the record; negative values are as filed.
This is an unselected part of the compounds tested.
Two or more numbers in one place are separate tests of the same structure; such repeats can differ widely.

| # | structure | Mtb cholesterol medium | Mtb glucose medium |
|---|---|---|---|
| 1 | `O=c1[nH][nH]cc1-c1ccnc(NCCCN2CCOCC2)n1` | -15.31 | -2.315 |
| 2 | `CC(=O)N[C@@H]1CN(Cc2nccn2C)C[C@H]1c1ccc(C)cc1` | -31.47 | -42.95 |
| 3 | `Cc1ccc(C(=O)O)cc1S(=O)(=O)N(CC(C)O)c1ccccc1` (centres undefined) | -7.12 | 13.5 |
| 4 | `Cc1cnc(CNC(=O)NC2CCCN(c3ccccc3F)C2)s1` (centres undefined) | 2.743 | 0.4346 & 16.88 |
| 5 | `CSCc1ccc(C(=O)N2CCN(CC(C)O)CC2)cc1` (centres undefined) | -11.64 | -1.198 |
| 6 | `CC(C)Cc1noc(CN(C)C2CCS(=O)(=O)C2)n1` (centres undefined) | 13.11 | -11.32 & 2.372 |
| 7 | `CC(C)c1nccc(CN2CCC(O)(CN3CCCCC3)C2)n1` (centres undefined) | 15.88 | -25.9 |
| 8 | `CC(C)CC1(C(=O)NCc2nncn2C2CC2)CCC1` | -20.43 | -23.57 & -6.309 |
| 9 | `CC1(C)CC(C(=O)N2CCC3(CCC(=O)N(C4CC4)C3)CC2)CCO1` (centres undefined) | 9.122 | 1.912 & -20.76 |
| 10 | `Cc1ccsc1-c1cccc(-c2ccn(CC3CCNC3)n2)c1` (centres undefined) | 54.49 | 53.91 |
| 11 | `COCC1CN(S(=O)(=O)Cc2ccc(C)cc2)Cc2c1cnn2C.O=C(O)C(F)(F)F` (centres undefined) | 11.11 | -1.218 & -7.456 |
| 12 | `Cc1ncsc1-c1ccn(CC(=O)Nc2cnn(C)n2)n1` | 12.5 | 14.15 |
| 13 | `O=C(O)C(F)(F)F.O=C(O)C(F)(F)F.[H][C@@]12COC[C@]1(CNC(=O)C1CCC1)CN(Cc1cccnc1)C2` | -1.904 | 26.69 |
| 14 | `CC(C)CC(NC(=O)CN(C)c1cnccn1)c1cccs1` (centres undefined) | -10.9 | -5.499 |
| 15 | `O=C(O)c1ccc2[nH]cc(CN3CCCC3)c2c1` | 14.2 | -1.16 |
| 16 | `CC(C1CCN(Cc2ccc(N(C)C)nc2)CC1)N(C)C` (centres undefined) | -0.08685 | -21.27 |
| 17 | `O=c1[nH]nc2nc(N3CCOCC3)ccn12` | 7.445 | -23.95 |
| 18 | `CCS(=O)(=O)N1C[C@@H](c2cc(O)nc(C)n2)[C@H](c2ccccc2F)C1` | -1.927 & 1.667 | -9.384 |
| 19 | `Cc1cc(C)n(CC2CCCN2CCCS(=O)(=O)N(C)C)n1` (centres undefined) | 1.446 | -4.469 |
| 20 | `O=C(NCCN1CCOCC1)c1cnc(-c2ccccc2F)s1` | -7.083 | -34.24 |
| 21 | `COc1cccc(CN(C)C(=O)Nc2ccc3c(c2)OCCO3)c1` | 1.743 | -19.53 & -3.634 |
| 22 | `CCc1ccc(C(=O)N2CCN(Cc3ccc(F)cc3)CC2)s1` | 62.57 | 69.34 |
| 23 | `CNC(=O)C1(c2cnccn2)CCCN1C(=O)c1ccccc1OC` (centres undefined) | -20.89 | -23.61 |
| 24 | `Cn1cncc1CN1CC[C@](C)(O)[C@@H](Oc2cccc(F)c2)C1` | -15.71 | -26.28 |
| 25 | `Cc1cc(C)n(CCCNC(=O)C(C)NC(=O)CC2CCCCC2)n1` (centres undefined) | 7.627 | -6.7 |
| 26 | `Cc1nc2cc(=O)[nH]n2c(C)c1CC(=O)Nc1ccc2ccccc2n1` | -8.227 | -24.09 |
| 27 | `[H][C@]12CCN(C(=O)C3CCCO3)[C@@]1([H])CCC(=O)N2CCN1CCCC1` (some centres undefined) | 3.703 | -4.889 |
| 28 | `CN(C)CCOCC1CN(Cc2ccccn2)Cc2nnn(C)c21.O=C(O)C(F)(F)F.O=C(O)C(F)(F)F.O=C(O)C(F)(F)F` (centres undefined) | -0.1027 | 1.529 |
| 29 | `O=C(c1cccc(S(=O)(=O)NCCc2cscn2)c1)N1CCOCC1` | -22.6 & 0.4443 | -32.36 |
| 30 | `CN1CCCC1c1nnc2n1CCN(S(=O)(=O)c1ccccc1Cl)CC2` (centres undefined) | 4.943 & -2.556 | -7.569 |
| 31 | `CC(C)c1nc(CNC(=O)c2ccc(C(C)N3CCCCC3)o2)cs1` (centres undefined) | -24.69 | -8.107 |
| 32 | `Cc1ccc(Sc2ccc(N3CCC(C(=O)O)CC3)nn2)cc1` | -24.52 | -67.49 |
| 33 | `CC1c2ncc(Cn3cncn3)n2CCN1C(=O)[C@H]1CCCO1` (some centres undefined) | -32.49 | -2.469 |
| 34 | `COc1ccccc1C(C)NC(=O)NCCC(=O)NC1CCCCC1` (centres undefined) | -8.153 | -5.018 |
| 35 | `CC(C)[C@@H](C)NC(=O)N1CCn2nc(C(=O)NCCN(C)C)cc2C1` | 1.316 & -10.66 | -3.949 |
| 36 | `Cc1ncc(S(C)(=O)=O)c(N2CCCN(Cc3ccccn3)CC2)n1` | -12.04 & -8.955 | -30.82 & -5.944 |
| 37 | `CCCc1nc(CN(CC)C(=O)c2onc3ccccc23)no1` | -11.22 | -11.42 |
| 38 | `Cc1ncsc1CCC(=O)NCc1csc(N2CCCC2)n1` | -18.85 | -9.586 |
| 39 | `O=C(O)C(F)(F)F.[H][C@]12CCN(C(=O)c3ccncc3F)[C@@]1([H])CC[C@H](COCC)O2` | -0.8542 | 5.398 |
| 40 | `CC(=O)N1CCC(Cc2cccc(-c3ccnn3C)n2)CC1` | 18.6 & 3.755 | -3.326 |
| 41 | `Cc1ccc(NS(C)(=O)=O)c(C(=O)NCCC(=O)NC(C)C)c1` | -26.94 | -4.77 |
| 42 | `CCn1c(C)nnc1CN(C)C1CCN(CCn2cccn2)C1` (centres undefined) | -19.25 | -29.13 |
| 43 | `COC(=O)c1oc(CNC(C)(C)c2ccc3c(c2)OCCO3)cc1C` | 7.669 | 0.03831 & 11.93 |
| 44 | `Cc1noc(CCCC(=O)NC(C)c2cccnc2)n1` (centres undefined) | -15.26 | -23.35 |
| 45 | `Cc1ccsc1CN(Cc1nc2c(cnn2C)c(=O)[nH]1)C(C)C` | -11.81 | -6.094 |
| 46 | `CCCn1cnnc1CNC(=O)C1COc2c(cccc2OC)C1` (centres undefined) | -20.83 | 11.58 |
| 47 | `CCc1nccn1CCC(=O)N1CC[C@@H](c2ccc(F)cc2)[C@H](O)C1` | 0.8492 & -11.67 | -8.977 |
| 48 | `CNC(=O)c1cc2c(nc1N(C)C)CCN(S(=O)(=O)C1CC1)CC2.O=C(O)C(F)(F)F` | -26.34 | -27.61 |
| 49 | `[H][C@]12CC[C@]([H])(CN(C(=O)c3sccc3S(N)(=O)=O)C1)N(C)C2=O` | 6.217 | 27.65 |
| 50 | `CC(C)CN1CCCC1c1ccc(C(=O)Nc2cn(C)nn2)s1` (centres undefined) | -29.36 & -3.751 | 30.9 |
| 51 | `Cc1ccc(S(=O)(=O)N2CCC3(CC(C(=O)NCC4CC4)=NO3)C2)cc1` (centres undefined) | -26.65 | -5.356 |
| 52 | `CC(C)c1nccn1C(C)C(=O)NCc1noc(Cc2cccs2)n1` (centres undefined) | 0.09047 | 7.628 & 7.474 |
| 53 | `CNC(=O)c1ccc(=O)n(Cc2csc(C(C)(C)C)n2)c1` | -8.509 | 32.31 |
| 54 | `[H][C@]12CN(C(=O)c3cnn(C)c3)C[C@@]1([H])OCCN(S(C)(=O)=O)C2` | -2.409 | 2.115 |
| 55 | `CCC1CN(C(=O)c2csc3nc(-c4ccc(Cl)cc4)cn23)CCN1` (centres undefined) | 57.98 | 73 |
| 56 | `CC(=O)N(Cc1ccoc1)C1CCCCC1` | -9.55 | 6.146 & 0.1956 |
| 57 | `CCCn1nnnc1COC(=O)C1COc2ccc(Cl)cc2C1` (centres undefined) | 8.023 | 39.73 |
| 58 | `Cc1cc(C)c(CNC(=O)NCC(O)c2ccccc2F)c(=O)[nH]1` (centres undefined) | -3.789 | -3.473 |
| 59 | `Cn1nc2c(cc1=O)CN(CCc1nc3ccccc3c(=O)[nH]1)CC2` | 3.931 | 0.992 & -0.9449 |
| 60 | `COC(=O)C1(C)CCN(C(=O)NCCc2c(C)[nH]c3ccccc23)C1` (centres undefined) | -10.37 & -7.291 | 15.8 |
| 61 | `COC(=O)CCC(=O)NC(C)Cc1ccccc1Br` (centres undefined) | 3.899 | 44.06 |
| 62 | `c1ccc(Cn2ccnc2CNCC2CCCN2c2cccnn2)cc1` (centres undefined) | -21.91 | 0.753 |
| 63 | `CCN(CC)C(CNS(=O)(=O)c1ccc(C(C)=O)cc1)c1ccco1` (centres undefined) | -39.19 | -11.81 |
| 64 | `O=C(C1CC(c2ccccc2)=NO1)N1CCCCc2ccccc21` (centres undefined) | 0.875 | -1.794 |
| 65 | `FC(F)(F)c1cccc(OC2CCN(Cc3ccccn3)CC2)c1` | 11.52 | 18.04 |
| 66 | `CCc1cc(C)c(C(=O)N2CCCC2CC(=O)c2cnn(C)c2)o1` (centres undefined) | -3.323 | -15.68 |
| 67 | `CN1CCN(C2CCN(c3cnc4ccccc4n3)CC2)C1=O` | 41.39 | 24.55 |
| 68 | `Cc1nc(N2CCCCC2)ncc1C(=O)N1CC(C)(C)[C@@](C)(O)C1` | -0.4127 | -5.908 |
| 69 | `Cc1cc(C)nc(C2CCN(C(=O)c3cnco3)C2)n1` (centres undefined) | 7.156 | 2.728 |
| 70 | `Cc1nc2sccn2c1CNC1(c2ccccc2F)CCCC1.O=C(O)CC(O)(CC(=O)O)C(=O)O` | 12.25 & 2.701 | 22.37 |
| 71 | `CC1CCc2nc(O)c(C(=O)NCc3ccccc3F)cc2C1` (centres undefined) | -12.71 & 4.035 | -1.952 |
| 72 | `COc1ccc(OC)c(-n2cnnc2CCN)c1` | -10.95 | 7.986 |
| 73 | `CCOCCNC(=O)c1ccn(S(=O)(=O)c2ccc(C)cc2)c1` | 3.092 | 15.29 |
| 74 | `O=C(C1CCCO1)N1CCCn2c(nnc2Cn2cccc2)C1` (centres undefined) | 10.62 | -2.618 & -4.882 |
| 75 | `Cc1sc2nc(CCN)nc(N3CCC(N4CCCC4)CC3)c2c1C` | -3.752 | -4.991 |
| 76 | `O=C1COC2(CCN(c3ccccn3)CC2)CN1Cc1ccccn1` | -19.5 | -4.209 |
| 77 | `O=C(NCC1(O)CCC1)c1c(O)cc(Cl)cc1Cl` | 3.521 | -4.692 |
| 78 | `Cc1noc(-c2ccc(N(C)Cc3ccncn3)nc2)n1` | 10.34 | -4.944 & 6.899 |
| 79 | `CNC(=O)CNC(=O)Nc1cc(-c2ccccc2)ns1` | -17.41 | -36.16 |

Repeated from the top, 8 entries:

- O=c1[nH][nH]cc1-c1ccnc(NCCCN2CCOCC2)n1 : Mtb cholesterol medium: -15.31%; Mtb glucose medium: -2.315%
- CC(=O)N[C@@H]1CN(Cc2nccn2C)C[C@H]1c1ccc(C)cc1 : Mtb cholesterol medium: -31.47%; Mtb glucose medium: -42.95%
- Cc1ccc(C(=O)O)cc1S(=O)(=O)N(CC(C)O)c1ccccc1 (centres undefined) : Mtb cholesterol medium: -7.12%; Mtb glucose medium: 13.5%
- Cc1cnc(CNC(=O)NC2CCCN(c3ccccc3F)C2)s1 (centres undefined) : Mtb cholesterol medium: 2.743%; Mtb glucose medium: 0.4346% & 16.88%
- CSCc1ccc(C(=O)N2CCN(CC(C)O)CC2)cc1 (centres undefined) : Mtb cholesterol medium: -11.64%; Mtb glucose medium: -1.198%
- CC(C)Cc1noc(CN(C)C2CCS(=O)(=O)C2)n1 (centres undefined) : Mtb cholesterol medium: 13.11%; Mtb glucose medium: -11.32% & 2.372%
- CC(C)c1nccc(CN2CCC(O)(CN3CCCCC3)C2)n1 (centres undefined) : Mtb cholesterol medium: 15.88%; Mtb glucose medium: -25.9%
- CC(C)CC1(C(=O)NCc2nncn2C2CC2)CCC1 : Mtb cholesterol medium: -20.43%; Mtb glucose medium: -23.57% & -6.309%